Assay results published in article PMC8109125.
No constants are given. Whether binding was seen depends on the method and setting. Binding seen in cells or lysates may run through a third protein. Some results given as binding are weak or reduced against the parent protein; the word gives no strength.

Sequences of proteins named here, by UniProt entry; tags and fusion partners are left off. A change or cut given only in a name is not applied to a line headed by its entry. A line that says so, or that is headed by a name, gives the form on record, which may keep a tag or linker.
flag-tagged MDM2 (Q00987, form named): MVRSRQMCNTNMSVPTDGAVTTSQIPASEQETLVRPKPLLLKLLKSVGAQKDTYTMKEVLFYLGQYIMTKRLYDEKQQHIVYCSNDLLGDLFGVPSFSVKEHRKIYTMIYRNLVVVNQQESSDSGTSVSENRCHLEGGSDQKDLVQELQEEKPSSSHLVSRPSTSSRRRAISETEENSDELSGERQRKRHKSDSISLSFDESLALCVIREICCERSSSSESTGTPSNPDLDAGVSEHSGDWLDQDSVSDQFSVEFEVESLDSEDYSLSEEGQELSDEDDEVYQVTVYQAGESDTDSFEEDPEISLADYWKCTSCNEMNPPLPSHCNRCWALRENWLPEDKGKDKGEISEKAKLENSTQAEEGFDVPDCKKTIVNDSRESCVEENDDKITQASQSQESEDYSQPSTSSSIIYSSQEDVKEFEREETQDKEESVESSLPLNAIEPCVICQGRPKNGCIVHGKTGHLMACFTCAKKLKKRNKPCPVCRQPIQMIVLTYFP
UniProt P23677: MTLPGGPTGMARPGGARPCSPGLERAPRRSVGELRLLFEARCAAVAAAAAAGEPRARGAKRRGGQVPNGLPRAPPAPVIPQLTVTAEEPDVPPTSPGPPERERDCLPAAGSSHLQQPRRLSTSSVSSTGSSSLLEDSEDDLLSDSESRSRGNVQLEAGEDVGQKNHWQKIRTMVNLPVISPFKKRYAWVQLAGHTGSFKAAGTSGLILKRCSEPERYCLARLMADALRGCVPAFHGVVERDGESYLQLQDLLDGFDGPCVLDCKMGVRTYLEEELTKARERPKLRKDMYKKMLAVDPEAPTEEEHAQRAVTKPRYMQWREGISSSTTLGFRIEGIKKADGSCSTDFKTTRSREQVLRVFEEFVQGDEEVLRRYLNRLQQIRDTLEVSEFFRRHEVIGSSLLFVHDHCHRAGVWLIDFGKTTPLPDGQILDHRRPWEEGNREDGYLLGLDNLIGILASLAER

Columns and labels:
[1] = molecular target: endogenous MDM2 of OVCAR3 cells (human (endogenous in OVCAR3)) (UniProt Q00987); experiment: co-IP; endogenous proteins from OVCAR3 cells; immunoprecipitation with an anti-MDM2 antibody
flag-tagged MDM2 = flag-tagged MDM2 (UniProt Q00987); experiment: co-IP; Flag-MDM2 and myc-ITPKA transfected into OVCAR3 cells, harvested after 48 hours in RIPA buffer; immunoprecipitation with an anti-Flag antibody, protein A beads, western blot

| binding [1] | binding (flag-tagged MDM2) | Substance |
| --- | --- | --- |
| binds |  | Inositol-trisphosphate 3-kinase A (ITPKA), endogenous in OVCAR3 cells (from UniProt P23677 1-461) |
|  | binds | myc-tagged ITPKA (from UniProt P23677 1-461) |
